Results are given in words; binding and its absence hold for the method and conditions named. Binding seen in cells or lysates may run through a third protein. For part of these data: A result given as binding can be weak or reduced; the word gives no strength.
Columns and labels:
[1] = target: ISCA2-Flag (mouse ISCA2 with a C-terminal Flag epitope) (mouse) (UniProt Q9DCB8); assay: co-IP; Flag M2 resin IP from mitochondria-enriched extracts of N2a cells transfected with ISCA1-Flag, ISCA2-Flag or IBA57-Flag, versus control IP; western blot of the eluates
[2] = target: IBA57-Flag (mouse IBA57 with a C-terminal Flag epitope) (mouse) (UniProt Q8CAK1); assay: as above

Amino acid sequences for entries named in this document (tags omitted). A change or cut given only in a name is not applied to a line headed by its entry.
UniProt Q9DCB8: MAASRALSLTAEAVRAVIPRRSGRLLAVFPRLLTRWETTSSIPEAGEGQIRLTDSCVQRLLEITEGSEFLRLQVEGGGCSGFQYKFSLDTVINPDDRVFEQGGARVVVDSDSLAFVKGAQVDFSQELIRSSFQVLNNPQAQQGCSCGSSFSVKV
UniProt Q8CAK1: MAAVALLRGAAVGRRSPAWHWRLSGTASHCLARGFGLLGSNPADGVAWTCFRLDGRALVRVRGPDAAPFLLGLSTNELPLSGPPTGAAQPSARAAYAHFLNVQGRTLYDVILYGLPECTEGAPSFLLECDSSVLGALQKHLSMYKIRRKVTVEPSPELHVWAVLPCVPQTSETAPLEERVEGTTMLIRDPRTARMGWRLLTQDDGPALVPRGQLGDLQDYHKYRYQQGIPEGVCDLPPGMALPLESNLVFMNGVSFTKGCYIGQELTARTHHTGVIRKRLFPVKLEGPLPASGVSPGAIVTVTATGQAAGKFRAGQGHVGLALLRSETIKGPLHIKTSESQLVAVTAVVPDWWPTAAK

Row | binding [1] | binding [2] | Binder
1 | no binding | no binding | NFU1 (endogenous, N2a) (protein, UniProt Q9QZ23 30-255) FKKQPLHQYVRRPLFPLRAPLCNTVRFMFIQTQDTPNPNSLKFIPGKPVLETRTMDFPTPAAAFRSPLARQLFRIEGVKSVFFGPDFITVTKENEELDWNLLKPDIYATIMDFFASGLPLVTEETPPPPGEAGSEEDDEVVAMIKELLDTRIRPTVQEDGGDVIYRGFEDGIVRLKLQGSCTSCPSSIITLKSGIQNMLQFYIPEVEGVEQVMDDDESDEKEANSS
2 | binds |  | GLRX5 (endogenous, N2a) (protein, UniProt Q80Y14 32-152) ASSGGQAEQLDALVKKDKVVVFLKGTPEQPQCGFSNAVVQILRLHGVRDYAAYNVLDDPELRQGIKDYSNWPTIPQVYLNGEFVGGCDILLQMHQNGDLVEELKKLGIRSALVDEKDQDSK

Source: paper PMC5437272
